{
  "source": "the supplement of paper PMC8728848",
  "assay_in_all_cases": "glycan array binding signal (z-score within array); higher = stronger binding",
  "settings_in_all_cases": "glycan notation: IUPAC condensed, linker removed",
  "key": {"[1]": {"molecular_target": "Man(a1-2)Man(a1-3)[Man(a1-2)Man(a1-6)]Man(a1-6)[Man(a1-2)Man(a1-2)Man(a1-3)]Man", "summary_of_the_method": "(§1)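 Arrays were curated from the Consortium for Functional Glycomics database, 3228 in total, and kept only where the protein sequence was available. Binding is expressed as a within-array Z-score. This score was averaged across arrays of the same protein sequence at different concentrations or buffers and across linkers, and negative values can be read as non-binding.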"}, "[2]": {"molecular_target": "Man(a1-2)Man(a1-3)[Man(a1-2)Man(a1-6)]Man(a1-6)[Man(a1-2)Man(a1-2)Man(a1-3)]Man(b1-4)GlcNAc(b1-4)GlcNAc", "summary_of_the_method": "as §1"}, "[3]": {"molecular_target": "Man(a1-2)Man(a1-3)[Man(a1-6)]Man(a1-6)[Man(a1-2)Man(a1-3)]Man(b1-4)GlcNAc(b1-4)GlcNAc", "summary_of_the_method": "as §1"}, "[4]": {"molecular_target": "Man(a1-2)Man(a1-6)[Man(a1-3)]Man(a1-6)[Man(a1-2)Man(a1-2)Man(a1-3)]Man", "summary_of_the_method": "as §1"}, "[5]": {"molecular_target": "Man(a1-2)Man(a1-6)[Man(a1-3)]Man(a1-6)[Man(a1-2)Man(a1-2)Man(a1-3)]Man(b1-4)GlcNAc(b1-4)GlcNAc", "summary_of_the_method": "as §1"}, "[6]": {"molecular_target": "Man(a1-3)[Man(a1-6)]Man", "summary_of_the_method": "as §1"}, "[7]": {"molecular_target": "Man(a1-3)[Man(a1-6)]Man(a1-6)[Man(a1-2)Man(a1-3)]Man(b1-4)GlcNAc(b1-4)GlcNAc", "summary_of_the_method": "as §1"}, "[8]": {"molecular_target": "Man(a1-3)[Man(a1-6)]Man(a1-6)[Man(a1-3)]Man", "summary_of_the_method": "as §1"}, "[9]": {"molecular_target": "Man(a1-3)[Man(a1-6)]Man(a1-6)[Man(a1-3)]Man(b1-4)GlcNAc(b1-4)GlcNAc", "summary_of_the_method": "as §1"}, "[10]": {"molecular_target": "Man(a1-3)[Man(a1-6)]Man(b1-4)GlcNAc(b1-4)GlcNAc", "summary_of_the_method": "as §1"}, "[11]": {"molecular_target": "Man(a1-3)[Man(a1-6)]Man(b1-4)GlcNAc(b1-4)[Fuc(a1-6)]GlcNAc", "summary_of_the_method": "as §1"}, "[12]": {"molecular_target": "Man(a1-6)Man", "summary_of_the_method": "as §1"}, "[13]": {"molecular_target": "Man(b1-4)GlcNAc", "summary_of_the_method": "as §1"}, "[14]": {"molecular_target": "MurNAc(b1-4)GlcNAc", "summary_of_the_method": "as §1"}, "[15]": {"molecular_target": "Neu5Ac(a2-3)Gal", "summary_of_the_method": "as §1"}, "[16]": {"molecular_target": "Neu5Ac(a2-3)Gal(b1-3)GalNAc", "summary_of_the_method": "as §1"}, "[17]": {"molecular_target": "Neu5Ac(a2-3)Gal(b1-3)GalNAc(b1-3)Gal(a1-4)Gal(b1-4)Glc", "summary_of_the_method": "as §1"}, "[18]": {"molecular_target": "Neu5Ac(a2-3)Gal(b1-3)GalNAc(b1-4)[Neu5Ac(a2-3)]Gal(b1-4)Glc", "summary_of_the_method": "as §1"}, "[19]": {"molecular_target": "Neu5Ac(a2-3)Gal(b1-3)GalNAc(b1-4)[Neu5Ac(a2-8)Neu5Ac(a2-3)]Gal(b1-4)Glc", "summary_of_the_method": "as §1"}, "[20]": {"molecular_target": "Neu5Ac(a2-3)Gal(b1-3)GalNAc6S", "summary_of_the_method": "as §1"}, "[21]": {"molecular_target": "Neu5Ac(a2-3)Gal(b1-3)GlcNAc", "summary_of_the_method": "as §1"}, "[22]": {"molecular_target": "Neu5Ac(a2-3)Gal(b1-3)GlcNAc(b1-2)Man", "summary_of_the_method": "as §1"}, "[23]": {"molecular_target": "Neu5Ac(a2-3)Gal(b1-3)GlcNAc(b1-2)Man(a1-3)[GlcNAc(b1-4)][Neu5Ac(a2-3)Gal(b1-3)GlcNAc(b1-2)Man(a1-6)]Man(b1-4)GlcNAc(b1-4)GlcNAc", "summary_of_the_method": "as §1"}, "[24]": {"molecular_target": "Neu5Ac(a2-3)Gal(b1-3)GlcNAc(b1-2)Man(a1-3)[Neu5Ac(a2-3)Gal(b1-3)GlcNAc(b1-2)Man(a1-6)]Man(b1-4)GlcNAc(b1-4)GlcNAc", "summary_of_the_method": "as §1"}, "[25]": {"molecular_target": "Neu5Ac(a2-3)Gal(b1-3)GlcNAc(b1-3)Gal(b1-3)GlcNAc", "summary_of_the_method": "as §1"}, "[26]": {"molecular_target": "Neu5Ac(a2-3)Gal(b1-3)GlcNAc(b1-3)Gal(b1-4)GlcNAc", "summary_of_the_method": "as §1"}, "[27]": {"molecular_target": "Neu5Ac(a2-3)Gal(b1-3)GlcNAc(b1-3)GalNAc", "summary_of_the_method": "as §1"}, "[28]": {"molecular_target": "Neu5Ac(a2-3)Gal(b1-3)GlcNAc(b1-4)Gal(b1-4)Glc", "summary_of_the_method": "as §1"}, "[29]": {"molecular_target": "Neu5Ac(a2-3)Gal(b1-3)GlcNAc(b1-6)GalNAc", "summary_of_the_method": "as §1"}, "[30]": {"molecular_target": "Neu5Ac(a2-3)Gal(b1-3)GlcNAc6S", "summary_of_the_method": "as §1"}, "[31]": {"molecular_target": "Neu5Ac(a2-3)Gal(b1-3)[Fuc(a1-4)]GlcNAc", "summary_of_the_method": "as §1"}, "[32]": {"molecular_target": "Neu5Ac(a2-3)Gal(b1-3)[Fuc(a1-4)]GlcNAc(b1-3)Gal(b1-3)[Fuc(a1-4)]GlcNAc", "summary_of_the_method": "as §1"}, "[33]": {"molecular_target": "Neu5Ac(a2-3)Gal(b1-3)[Fuc(a1-4)]GlcNAc(b1-3)Gal(b1-4)[Fuc(a1-3)]GlcNAc", "summary_of_the_method": "as §1"}, "[34]": {"molecular_target": "Neu5Ac(a2-3)Gal(b1-3)[GlcNAc(b1-6)]GalNAc", "summary_of_the_method": "as §1"}, "[35]": {"molecular_target": "Neu5Ac(a2-3)Gal(b1-3)[Neu5Ac(a2-6)]GalNAc", "summary_of_the_method": "as §1"}, "[36]": {"molecular_target": "Neu5Ac(a2-3)Gal(b1-3)[Neu5Ac(a2-6)]GlcNAc(b1-3)[Fuc(a1-3)[Gal(b1-4)]GlcNAc(b1-6)]Gal(b1-4)Glc", "summary_of_the_method": "as §1"}, "[37]": {"molecular_target": "Neu5Ac(a2-3)Gal(b1-3)]Neu5Ac(a2-3)Gal(b1-4)]GlcNAc", "summary_of_the_method": "as §1"}},
  "note": "The list shows a part of the results.",
  "data": [
    {"binder": "PX14343I-pdi-501-30-501 (Parabacteroides distasonis) (protein) SDQYSTETFWKTKEHASAGIMGCYNALKLWRSLHTMEFDMLTANAMPYNEANGTQAIGKGEHLSTTALIGSLWKNCYVGIGRTNTFIANVGGVDMDESEKAKMVGEAKFLRAFYYLSLVDKFGGVPLIIDAPNADEQAELPRNSKEEVVNQIVKDLEEAAAVLPDTYASSDLGRATKGAALALKARTLLYNSRWAEAAQAAKQVMESGVYQLFNDYRHFFSEDNKYNCEVIFDIEAKLPEYPTDYDQNIWRLNRPAPLKELVDTYLCVDGKTIEESPLYDPTRPYENRDPRLLKSIVCIGYPYLGKTITKEDVATTGFGVKKYTSYEDDVTIPLVERSAFNFILIRYAEVLLTYAEAQNEASGPDQSVYDAINQLRRRPDINMPEVPKGLTKDQMREVIRRERRIELTFEGLYYSDILRWKTAEKENNGMMHNYEGIEVVKRSFNPKRDYLWPIPYNQTVLNPNLEQNPNWD", "values": [
      {"measurement": "glycan array binding signal (z-score)", "setting": "[1]", "result": -0.598},
      {"measurement": "glycan array binding signal (z-score)", "setting": "[2]", "result": 0.365},
      {"measurement": "glycan array binding signal (z-score)", "setting": "[3]", "result": 0.075},
      {"measurement": "glycan array binding signal (z-score)", "setting": "[4]", "result": -0.091},
      {"measurement": "glycan array binding signal (z-score)", "setting": "[5]", "result": -1.02},
      {"measurement": "glycan array binding signal (z-score)", "setting": "[6]", "result": 0.631},
      {"measurement": "glycan array binding signal (z-score)", "setting": "[7]", "result": 0.28},
      {"measurement": "glycan array binding signal (z-score)", "setting": "[8]", "result": 0.084},
      {"measurement": "glycan array binding signal (z-score)", "setting": "[9]", "result": 0.18},
      {"measurement": "glycan array binding signal (z-score)", "setting": "[10]", "result": -0.365},
      {"measurement": "glycan array binding signal (z-score)", "setting": "[11]", "result": -0.538},
      {"measurement": "glycan array binding signal (z-score)", "setting": "[12]", "result": 0.339},
      {"measurement": "glycan array binding signal (z-score)", "setting": "[13]", "result": -0.706},
      {"measurement": "glycan array binding signal (z-score)", "setting": "[14]", "result": -0.518},
      {"measurement": "glycan array binding signal (z-score)", "setting": "[15]", "result": 0.524},
      {"measurement": "glycan array binding signal (z-score)", "setting": "[16]", "result": -0.237},
      {"measurement": "glycan array binding signal (z-score)", "setting": "[17]", "result": 0.694},
      {"measurement": "glycan array binding signal (z-score)", "setting": "[18]", "result": -0.336},
      {"measurement": "glycan array binding signal (z-score)", "setting": "[19]", "result": -1.31},
      {"measurement": "glycan array binding signal (z-score)", "setting": "[20]", "result": -0.135},
      {"measurement": "glycan array binding signal (z-score)", "setting": "[21]", "result": -0.433},
      {"measurement": "glycan array binding signal (z-score)", "setting": "[22]", "result": -0.179},
      {"measurement": "glycan array binding signal (z-score)", "setting": "[23]", "result": -0.745},
      {"measurement": "glycan array binding signal (z-score)", "setting": "[24]", "result": 0.031},
      {"measurement": "glycan array binding signal (z-score)", "setting": "[25]", "result": -0.739},
      {"measurement": "glycan array binding signal (z-score)", "setting": "[26]", "result": -0.206},
      {"measurement": "glycan array binding signal (z-score)", "setting": "[27]", "result": -0.262},
      {"measurement": "glycan array binding signal (z-score)", "setting": "[28]", "result": -0.555},
      {"measurement": "glycan array binding signal (z-score)", "setting": "[29]", "result": -0.663},
      {"measurement": "glycan array binding signal (z-score)", "setting": "[30]", "result": 0.182},
      {"measurement": "glycan array binding signal (z-score)", "setting": "[31]", "result": -0.06},
      {"measurement": "glycan array binding signal (z-score)", "setting": "[32]", "result": -0.006},
      {"measurement": "glycan array binding signal (z-score)", "setting": "[33]", "result": -0.652},
      {"measurement": "glycan array binding signal (z-score)", "setting": "[34]", "result": 0.535},
      {"measurement": "glycan array binding signal (z-score)", "setting": "[35]", "result": -0.417},
      {"measurement": "glycan array binding signal (z-score)", "setting": "[36]", "result": -0.456},
      {"measurement": "glycan array binding signal (z-score)", "setting": "[37]", "result": -0.687}
    ]}
  ]
}
